# Percent effect of library compounds

Chains of the proteins cited; added tags and fusions are not shown. Residues count along the entry.
UniProt P9WPC5, whole entry: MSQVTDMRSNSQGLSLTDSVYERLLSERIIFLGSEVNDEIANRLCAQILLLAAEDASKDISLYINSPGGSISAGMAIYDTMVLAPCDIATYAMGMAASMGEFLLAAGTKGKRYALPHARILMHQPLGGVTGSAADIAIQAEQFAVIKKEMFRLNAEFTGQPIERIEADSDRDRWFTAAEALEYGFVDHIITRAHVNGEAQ
UniProt P9WPC3, whole entry partner: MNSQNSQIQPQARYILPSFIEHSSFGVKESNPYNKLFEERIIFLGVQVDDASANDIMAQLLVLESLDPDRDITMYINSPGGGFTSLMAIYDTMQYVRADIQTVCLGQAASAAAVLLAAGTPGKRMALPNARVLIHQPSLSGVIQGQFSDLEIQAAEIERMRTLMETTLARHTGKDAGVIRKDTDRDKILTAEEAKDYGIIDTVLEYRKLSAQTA
UniProt P9WNZ1, whole entry: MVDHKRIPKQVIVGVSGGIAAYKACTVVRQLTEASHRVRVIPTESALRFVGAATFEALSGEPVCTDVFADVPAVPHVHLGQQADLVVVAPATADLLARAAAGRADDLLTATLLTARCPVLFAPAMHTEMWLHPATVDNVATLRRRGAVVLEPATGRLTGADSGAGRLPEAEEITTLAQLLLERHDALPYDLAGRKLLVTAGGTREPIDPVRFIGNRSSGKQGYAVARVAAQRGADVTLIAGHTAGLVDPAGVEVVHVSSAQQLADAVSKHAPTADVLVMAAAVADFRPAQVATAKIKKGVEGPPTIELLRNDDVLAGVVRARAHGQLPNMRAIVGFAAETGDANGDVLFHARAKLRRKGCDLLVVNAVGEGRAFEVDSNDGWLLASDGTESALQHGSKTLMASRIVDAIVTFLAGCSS
UniProt Q8IDJ8, 1-583: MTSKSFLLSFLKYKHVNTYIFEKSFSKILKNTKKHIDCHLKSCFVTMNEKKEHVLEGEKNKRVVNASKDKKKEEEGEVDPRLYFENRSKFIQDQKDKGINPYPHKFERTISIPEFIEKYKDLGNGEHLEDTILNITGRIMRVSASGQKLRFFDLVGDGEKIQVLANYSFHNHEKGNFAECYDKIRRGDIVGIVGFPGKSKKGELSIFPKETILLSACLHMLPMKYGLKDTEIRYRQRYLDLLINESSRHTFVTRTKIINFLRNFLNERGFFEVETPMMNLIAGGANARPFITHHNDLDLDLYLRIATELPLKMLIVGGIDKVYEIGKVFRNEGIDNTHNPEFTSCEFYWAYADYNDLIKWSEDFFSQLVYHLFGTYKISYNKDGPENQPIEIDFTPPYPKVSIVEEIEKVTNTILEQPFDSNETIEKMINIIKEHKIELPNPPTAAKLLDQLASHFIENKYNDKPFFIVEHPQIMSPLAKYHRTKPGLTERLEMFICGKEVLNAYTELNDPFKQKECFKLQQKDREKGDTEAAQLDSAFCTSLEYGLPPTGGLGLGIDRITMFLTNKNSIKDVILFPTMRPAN

Source: ChEMBL document CHEMBL3988442, “University of Dundee, Small-Polar-MMV Screening Library” (2021).

Values are the deposited “Percent Effect”, in %.
The record does not define 0% and 100%; most values in the screen are far below 50% and negative numbers occur (in some assays of this library far below -100).
The compounds are a random part of those screened.
A dash means the value is not listed here; it may have been measured.

ClpP1P2: 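ClpP1P2, Mycobacterium tuberculosis (UniProt P9WPC5 and UniProt P9WPC3). Protease assay of ClpP1P2, read by the AMC dye that it sets free. Concentration: 50 µM. Higher reads as stronger inhibition, judged from the few compounds that gave an IC50. Most other retested compounds had strongly negative values. Of about 69,000 compounds tested this way, about 10 (0.015%) reached 50% or more in at least one test.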
CoaBC: 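Enzyme assay of CoaBC with a phosphate dye (Biomol Green) read at 650 nm. Target: Coenzyme A biosynthesis protein CoaBC, Mycobacterium tuberculosis (UniProt P9WNZ1). Tested at 30 µM. Direction is inferred from only a few compounds that gave an IC50; most scored high, so higher reads as stronger inhibition. Most strong results did not repeat in a second test. Size under these conditions: about 67,000 compounds, about 40 of them at 50% or above in at least one test.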
PfKRS1: 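Lysine-tRNA ligase, Plasmodium falciparum 3D7 (UniProt Q8IDJ8). Enzyme assay of the cytosolic lysyl-tRNA synthetase in 384-well plates, read by luminescence. Tested at 30 µM. Direction is inferred from only a few compounds that gave an IC50; most scored high, so higher reads as stronger inhibition. Of about 69,000 compounds tested this way, about 49 (0.071%) reached 50% or more in at least one test.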

structure | ClpP1P2 | CoaBC | PfKRS1
Cc1cccnc1CN1CCN(C(=O)c2ccn(C(C)(C)C)c2)CC1 | 21.42% | -3.524% | -6.951%
CS(=O)(=O)CCCNC1(c2cccc(F)c2)CC1 | -2.565% | -4.545% | -2.017%
Cc1cc(CSCc2ccccn2)on1 | -5.346% | 6.612% | -4.853%
CCc1ccc2nc(C)cc(C(=O)NCc3csc(N(C)C)n3)c2c1 | 12.03% | 12.96% | -2.483%
CC(C)(C)CC(=O)N1C[C@@H]2C[C@H]1CN2 | -10.23% | 0% | 0.2983%
O=C(Nc1ccccn1)C1CCN(Cc2cc3c(cc2O)OCO3)CC1 | 19.72% | 4.369% | 2.645%
CC(C)C(=O)N1CCCC2(CC(C(=O)NCc3cccnc3)=NO2)C1 (configuration not stated) | -21.37% | 5.863% | 1.422%
Cc1cc(C)n(CC(C)CNC(=O)N(C)Cc2ccco2)n1 (configuration not stated) | 11.79% | 3.478% | 3.267%
CNc1cc(C2CN(CC(=O)N(C)C)CCO2)nc(C)n1 (configuration not stated) | -5.269% | -0.3708% | 0.2735%
CS(=O)(=O)N1CCC(Oc2ccc(C(=O)NC3CCCC3)cc2Cl)CC1 | -0.2979% | -1.775% | 1.085%
CCC(Nc1cccc(Oc2ccc(C#N)cc2)c1)C(N)=O (configuration not stated) | -0.3846% | 14.92% | 5.171%
CN(C)C(=O)c1n[nH]c2c1CN(Cc1nccs1)CC2 | -11.32% | 8.411% | 2.706%
CN1[C@H](CN2CCCC2)C[C@@H]2CN(C(=O)c3ccsc3)CC[C@@H]21 | 0.7366% | 1.647% | -3.319%
O=C(c1cnccn1)N1CCC(CN2CCOCC2)CC1 | -4.601% | 2.915% | 3.502%
CS(=O)(=O)CCCNC1(c2cccc(Cl)c2)CCCC1 | 0.8709% | 0.4132% | 4.217%
CN1CCC(N2CCN3C(=O)NC[C@H]3C2)CC1 | -16.53% | -13.95% | 6.737%
CN1CCN2CCN(Cc3cc(=O)n4c5c(cccc35)CCC4)CC2C1 (configuration not stated) | 3.449% | 5.052% | 7.215%
Cn1nc(Br)c2c(NCCS(N)(=O)=O)ncnc21 | -2.056% | -0.1266% | 3.729%
CC1CCN(C)c2ccccc2N1C(=O)c1ccc(=O)n(C)n1 (configuration not stated) | -9.149% | - | 0.3976%
COc1ncccc1C(=O)N1CC(c2nc(-c3ccco3)no2)C1 | -11.16% | -2.635% | -2.851%
CSCC(=O)N1CCc2[nH]nc(-c3ccc4c(c3)OCO4)c2C1 | -12.29% | 1.869% | 3.886%
COc1ccccc1C(O)CNc1nccc(-c2ccc(C)nc2C)n1 (configuration not stated) | 9.717% | 2.806% | 3.823%
Cn1cc(CN2CCCC3(CCN(C(=O)c4ccccn4)C3)C2)cn1 (configuration not stated) | 3.185% | 3.553% | -1.765%
O=C(C1CCOCC1)N1CC[C@@](O)(c2ccccc2)[C@H]2CCCC[C@@H]21 | -10.76% | -1.491% | -2.975%
CN(C)CCN1C[C@@H]2CN(C(=O)c3ccsc3)C[C@@H]2C1=O | -7.023% | 0% | -3.261%
CN(Cc1ccco1)C(=O)CN1CCCC1Cn1cccn1 (configuration not stated) | 0.6632% | 4.536% | 1.152%
c1ccc(CN2CC[C@]3(C[C@@H](Oc4ccccn4)CO3)C2)nc1 | 15.49% | 5.959% | -3.134%
Cc1cccc(N2CCN(CCNC(=O)c3ccnn3C)CC2)c1 | 2.296% | 0.207% | 7.743%
Cc1nn(C)c(C)c1NC(=O)CNc1ccc(F)c(C(F)(F)F)c1 | -6.956% | -2.206% | 4.041%
Cc1ncsc1C(=O)N1CCN(Cc2cscn2)CC1 | 0.6583% | 2.046% | 10.99%
O=C(O)C(c1ccc2c(c1)OCCO2)N1CCCC1 (configuration not stated) | 0.8907% | -0.7712% | 7.986%
O=C(NCCCN1CCCC1=O)c1ccc(-n2ccc3ccccc32)s1 | 17.35% | -0.1203% | -2.431%
CCOc1ccc(NC(=O)c2ccc(C#N)cc2C)cc1CO | -5.605% | - | -6.278%
CS(=O)(=O)NCCNC(=O)C1(c2ccc(F)cc2)CC1 | 6.651% | 3.659% | -1.553%
OCc1ccncc1NCc1cnc(-c2ccccn2)s1 | -10.84% | -1.129% | 3.543%
COCC(=O)NC1CC2(CCN(Cc3ccco3)CC2)c2ccccc21 (configuration not stated) | -5.061% | 2.314% | 3.109%
CNC(=O)NCC1CCC2(CCN(C(=O)c3ccccn3)CC2)CO1 (configuration not stated) | -7.531% | 3.704% | 4.708%
CN1Cc2ccccc2CC1C(=O)N1CCN(CCS(C)(=O)=O)CC1 (configuration not stated) | -2.371% | -5.055% | 3.197%
CC1(C(=O)N2CCN(C3CCCC3)CC2)CNCCO1 (configuration not stated) | -2.613% | -4.574% | 0.8965%
CN(Cc1ccccn1)C(CO)c1cccc(Br)c1 (configuration not stated) | -7.535% | -3.671% | 0.4825%
CCc1ccc2c(c1)C(CCNC(=O)Cc1ccc(F)cc1)C(=O)N2 (configuration not stated) | -11.51% | -6.048% | -1.178%
CC(C)c1nccn1CCCNC(=O)c1ccc(-c2ccncc2)nc1 | 7.499% | 6.653% | 4.858%
O=C(c1ccccn1)N1CCC(c2nc(O)cc(-c3ccncc3)n2)C1 (configuration not stated) | 14.38% | -3.186% | 8.516%
CN(CCSc1ccccc1)C(=O)c1cn2c(n1)CNCC2 | -6.397% | 2.233% | 5.03%
CCn1cc(N)c(-c2nnc3n2CCCC3)n1 | -6.112% | 1.84% | 3.231%
Cc1csc(NC(=O)c2cnc(C3CCNCC3)cn2)n1 | -0.09652% | 3.832% | 1.307%
O=C(C1CN(CC2CC2)CC12CCOCC2)N1CCCC1 (configuration not stated) | -1.002% | 4.713% | 3.12%
CCc1n[nH]c(C2CN(CCc3ccncc3)CCO2)n1 (configuration not stated) | 8.386% | 8.094% | 5.565%
CNC(=O)c1ncn2c1CN(CCC(C)C)S(=O)(=O)c1ccccc1-2 | -0.3178% | 3.299% | 2.531%
COCC1CN(Cc2c(C)noc2C)Cc2cn(C)nc21 (configuration not stated) | -14.1% | 10.65% | -3.321%
Cc1ccc(C2CSCCN2C(=O)c2ccoc2C)o1 (configuration not stated) | 8.507% | -2.806% | 7.418%

The first 3 entries again:

| structure | ClpP1P2 | CoaBC | PfKRS1 |
|---|---|---|---|
| `Cc1cccnc1CN1CCN(C(=O)c2ccn(C(C)(C)C)c2)CC1` | 21.42% | -3.524% | -6.951% |
| `CS(=O)(=O)CCCNC1(c2cccc(F)c2)CC1` | -2.565% | -4.545% | -2.017% |
| `Cc1cc(CSCc2ccccn2)on1` | -5.346% | 6.612% | -4.853% |